# Measured values taken from the supplement of paper PMC10849652.
# The chains behind the UniProt entries cited, without tags or fusion partners. Where a name states a change or a piece, a line headed by the entry shows the natural chain unless it says otherwise.
# UniProt Q2M3R5: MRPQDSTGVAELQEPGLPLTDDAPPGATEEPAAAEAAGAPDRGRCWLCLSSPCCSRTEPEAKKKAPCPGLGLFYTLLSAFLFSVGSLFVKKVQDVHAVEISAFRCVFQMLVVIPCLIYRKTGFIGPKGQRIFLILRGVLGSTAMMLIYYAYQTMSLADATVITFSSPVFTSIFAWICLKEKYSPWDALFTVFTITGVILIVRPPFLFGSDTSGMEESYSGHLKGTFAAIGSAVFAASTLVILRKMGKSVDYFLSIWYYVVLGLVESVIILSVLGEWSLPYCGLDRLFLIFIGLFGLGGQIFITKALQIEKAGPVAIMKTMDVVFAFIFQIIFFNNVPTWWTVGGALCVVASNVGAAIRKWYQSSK
# UniProt Q9HAB3: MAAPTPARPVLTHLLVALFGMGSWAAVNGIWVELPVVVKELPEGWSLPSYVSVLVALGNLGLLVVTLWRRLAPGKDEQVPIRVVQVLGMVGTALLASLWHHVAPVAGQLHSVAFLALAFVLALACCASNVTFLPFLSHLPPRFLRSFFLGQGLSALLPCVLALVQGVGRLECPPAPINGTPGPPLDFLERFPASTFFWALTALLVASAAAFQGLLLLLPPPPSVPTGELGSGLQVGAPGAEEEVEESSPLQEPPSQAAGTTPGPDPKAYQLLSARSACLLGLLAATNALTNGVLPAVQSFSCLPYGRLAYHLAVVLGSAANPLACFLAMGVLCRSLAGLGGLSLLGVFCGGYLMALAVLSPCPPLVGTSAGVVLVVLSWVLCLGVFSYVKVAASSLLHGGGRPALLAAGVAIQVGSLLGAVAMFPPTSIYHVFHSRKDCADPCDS
# UniProt Q96QE2: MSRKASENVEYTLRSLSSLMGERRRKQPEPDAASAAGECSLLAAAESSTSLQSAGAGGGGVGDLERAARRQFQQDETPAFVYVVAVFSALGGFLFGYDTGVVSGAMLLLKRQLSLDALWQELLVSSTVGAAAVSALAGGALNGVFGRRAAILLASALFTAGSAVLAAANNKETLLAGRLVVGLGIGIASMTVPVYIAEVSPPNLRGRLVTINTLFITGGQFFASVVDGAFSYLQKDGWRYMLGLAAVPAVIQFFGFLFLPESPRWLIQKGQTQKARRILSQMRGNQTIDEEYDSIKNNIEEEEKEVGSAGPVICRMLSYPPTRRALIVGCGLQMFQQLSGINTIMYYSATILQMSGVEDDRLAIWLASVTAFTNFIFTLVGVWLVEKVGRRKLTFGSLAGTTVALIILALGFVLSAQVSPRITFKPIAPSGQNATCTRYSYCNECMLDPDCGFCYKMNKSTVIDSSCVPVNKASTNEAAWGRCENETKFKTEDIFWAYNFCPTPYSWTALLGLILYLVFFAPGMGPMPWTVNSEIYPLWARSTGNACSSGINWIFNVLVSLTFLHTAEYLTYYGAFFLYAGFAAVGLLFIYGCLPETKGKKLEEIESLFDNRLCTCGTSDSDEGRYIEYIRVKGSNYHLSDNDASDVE
# UniProt Q8N357: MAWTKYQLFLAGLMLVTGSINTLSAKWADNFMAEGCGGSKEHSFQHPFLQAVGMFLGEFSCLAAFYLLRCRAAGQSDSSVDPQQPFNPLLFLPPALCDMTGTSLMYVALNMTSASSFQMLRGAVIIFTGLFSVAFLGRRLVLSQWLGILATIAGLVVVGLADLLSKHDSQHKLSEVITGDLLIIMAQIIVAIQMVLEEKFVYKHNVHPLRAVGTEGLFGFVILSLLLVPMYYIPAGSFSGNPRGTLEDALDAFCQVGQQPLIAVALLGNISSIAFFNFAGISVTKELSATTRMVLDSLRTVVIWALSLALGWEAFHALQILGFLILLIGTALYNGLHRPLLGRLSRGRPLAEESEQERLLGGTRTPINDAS
# UniProt Q7Z769: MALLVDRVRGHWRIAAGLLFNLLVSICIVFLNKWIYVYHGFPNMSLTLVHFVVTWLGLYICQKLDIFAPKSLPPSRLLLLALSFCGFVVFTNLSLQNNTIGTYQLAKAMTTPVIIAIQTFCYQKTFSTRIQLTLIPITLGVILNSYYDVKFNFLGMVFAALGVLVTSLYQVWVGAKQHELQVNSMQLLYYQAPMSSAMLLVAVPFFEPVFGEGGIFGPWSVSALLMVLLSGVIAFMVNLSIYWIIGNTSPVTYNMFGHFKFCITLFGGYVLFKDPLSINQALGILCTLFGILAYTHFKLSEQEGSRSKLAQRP
# UniProt Q9Y2P4: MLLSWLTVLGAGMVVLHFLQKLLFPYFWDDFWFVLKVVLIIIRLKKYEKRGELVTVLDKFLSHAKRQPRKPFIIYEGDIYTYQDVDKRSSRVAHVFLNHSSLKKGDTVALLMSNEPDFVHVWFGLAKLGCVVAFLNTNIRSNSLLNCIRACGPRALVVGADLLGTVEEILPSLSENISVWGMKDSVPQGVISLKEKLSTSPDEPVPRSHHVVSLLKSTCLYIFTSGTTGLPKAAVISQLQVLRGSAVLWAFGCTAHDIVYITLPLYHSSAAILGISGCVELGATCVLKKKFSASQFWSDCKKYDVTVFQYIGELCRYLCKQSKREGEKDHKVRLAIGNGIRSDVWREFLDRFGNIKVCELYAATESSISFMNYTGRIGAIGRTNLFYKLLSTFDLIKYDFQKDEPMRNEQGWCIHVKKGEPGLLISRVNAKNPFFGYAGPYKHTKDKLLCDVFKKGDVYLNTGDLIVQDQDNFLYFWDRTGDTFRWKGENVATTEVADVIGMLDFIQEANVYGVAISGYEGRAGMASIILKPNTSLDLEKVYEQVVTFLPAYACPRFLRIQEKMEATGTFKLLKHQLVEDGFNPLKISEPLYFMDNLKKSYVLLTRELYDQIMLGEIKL
# UniProt Q8N8R3: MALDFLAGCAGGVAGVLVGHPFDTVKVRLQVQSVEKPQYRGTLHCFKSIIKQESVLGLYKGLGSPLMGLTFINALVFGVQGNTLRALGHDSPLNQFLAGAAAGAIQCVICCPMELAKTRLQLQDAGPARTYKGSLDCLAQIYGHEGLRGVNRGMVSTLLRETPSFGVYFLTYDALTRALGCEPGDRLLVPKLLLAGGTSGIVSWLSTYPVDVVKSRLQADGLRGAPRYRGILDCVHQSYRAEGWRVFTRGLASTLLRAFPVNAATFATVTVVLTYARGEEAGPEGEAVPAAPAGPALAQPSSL
# UniProt Q9C0K1: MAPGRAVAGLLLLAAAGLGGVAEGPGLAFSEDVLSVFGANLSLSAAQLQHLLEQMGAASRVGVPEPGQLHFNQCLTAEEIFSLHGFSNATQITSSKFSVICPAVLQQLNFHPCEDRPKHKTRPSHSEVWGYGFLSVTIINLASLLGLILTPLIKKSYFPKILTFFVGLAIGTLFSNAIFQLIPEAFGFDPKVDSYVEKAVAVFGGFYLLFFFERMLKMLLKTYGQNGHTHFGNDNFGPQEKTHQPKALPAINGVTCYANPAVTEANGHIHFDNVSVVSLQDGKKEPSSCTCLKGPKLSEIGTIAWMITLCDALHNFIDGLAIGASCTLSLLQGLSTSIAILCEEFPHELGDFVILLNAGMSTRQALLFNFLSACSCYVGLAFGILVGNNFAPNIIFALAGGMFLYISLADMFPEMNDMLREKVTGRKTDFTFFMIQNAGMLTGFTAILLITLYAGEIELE
# UniProt P14672: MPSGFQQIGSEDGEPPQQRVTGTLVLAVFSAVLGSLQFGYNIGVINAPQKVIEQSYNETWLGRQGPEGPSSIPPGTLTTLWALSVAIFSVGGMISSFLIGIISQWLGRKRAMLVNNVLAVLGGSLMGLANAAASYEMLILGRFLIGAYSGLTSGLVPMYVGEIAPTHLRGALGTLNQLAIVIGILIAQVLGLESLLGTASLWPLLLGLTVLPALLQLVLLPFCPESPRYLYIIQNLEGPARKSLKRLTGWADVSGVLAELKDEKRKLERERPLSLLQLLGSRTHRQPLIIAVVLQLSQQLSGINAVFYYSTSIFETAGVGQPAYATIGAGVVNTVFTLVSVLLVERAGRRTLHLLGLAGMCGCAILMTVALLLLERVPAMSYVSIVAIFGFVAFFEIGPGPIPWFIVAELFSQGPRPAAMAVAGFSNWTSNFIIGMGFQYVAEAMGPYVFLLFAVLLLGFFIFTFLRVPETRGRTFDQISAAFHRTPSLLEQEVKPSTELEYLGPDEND
# UniProt Q9BRY0: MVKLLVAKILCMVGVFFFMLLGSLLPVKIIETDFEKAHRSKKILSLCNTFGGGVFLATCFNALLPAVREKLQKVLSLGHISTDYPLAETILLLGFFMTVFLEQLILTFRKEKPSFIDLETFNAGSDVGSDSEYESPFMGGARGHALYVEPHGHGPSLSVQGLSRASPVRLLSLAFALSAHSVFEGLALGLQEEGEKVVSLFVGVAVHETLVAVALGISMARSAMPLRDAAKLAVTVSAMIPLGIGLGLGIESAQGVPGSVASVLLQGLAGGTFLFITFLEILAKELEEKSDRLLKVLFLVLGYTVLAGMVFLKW
# UniProt P09131: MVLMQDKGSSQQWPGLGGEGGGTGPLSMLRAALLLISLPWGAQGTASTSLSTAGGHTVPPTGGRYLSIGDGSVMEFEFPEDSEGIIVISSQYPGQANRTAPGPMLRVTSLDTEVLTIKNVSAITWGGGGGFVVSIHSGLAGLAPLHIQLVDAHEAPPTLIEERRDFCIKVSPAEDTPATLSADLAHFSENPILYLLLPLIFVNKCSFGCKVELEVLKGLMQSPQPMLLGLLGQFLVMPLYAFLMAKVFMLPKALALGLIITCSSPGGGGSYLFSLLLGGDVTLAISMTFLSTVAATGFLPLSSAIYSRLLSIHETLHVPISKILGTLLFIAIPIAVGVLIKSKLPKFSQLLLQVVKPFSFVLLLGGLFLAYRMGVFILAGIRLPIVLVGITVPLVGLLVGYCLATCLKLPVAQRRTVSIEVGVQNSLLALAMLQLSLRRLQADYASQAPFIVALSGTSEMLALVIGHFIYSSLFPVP
# UniProt Q96NT5: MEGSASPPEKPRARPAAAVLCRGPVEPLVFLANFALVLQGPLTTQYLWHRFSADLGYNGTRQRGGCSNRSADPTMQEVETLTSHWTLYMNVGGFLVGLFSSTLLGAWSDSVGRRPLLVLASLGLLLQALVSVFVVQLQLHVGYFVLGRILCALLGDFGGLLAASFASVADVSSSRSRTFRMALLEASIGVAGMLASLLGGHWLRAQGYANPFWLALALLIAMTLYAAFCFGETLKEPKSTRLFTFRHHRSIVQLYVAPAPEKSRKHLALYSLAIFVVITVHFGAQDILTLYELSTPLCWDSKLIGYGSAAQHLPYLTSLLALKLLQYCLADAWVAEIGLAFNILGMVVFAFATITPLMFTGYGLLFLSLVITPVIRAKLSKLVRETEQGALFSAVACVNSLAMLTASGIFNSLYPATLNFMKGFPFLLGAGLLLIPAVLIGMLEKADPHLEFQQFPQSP
# UniProt P43003, whole entry, looked up: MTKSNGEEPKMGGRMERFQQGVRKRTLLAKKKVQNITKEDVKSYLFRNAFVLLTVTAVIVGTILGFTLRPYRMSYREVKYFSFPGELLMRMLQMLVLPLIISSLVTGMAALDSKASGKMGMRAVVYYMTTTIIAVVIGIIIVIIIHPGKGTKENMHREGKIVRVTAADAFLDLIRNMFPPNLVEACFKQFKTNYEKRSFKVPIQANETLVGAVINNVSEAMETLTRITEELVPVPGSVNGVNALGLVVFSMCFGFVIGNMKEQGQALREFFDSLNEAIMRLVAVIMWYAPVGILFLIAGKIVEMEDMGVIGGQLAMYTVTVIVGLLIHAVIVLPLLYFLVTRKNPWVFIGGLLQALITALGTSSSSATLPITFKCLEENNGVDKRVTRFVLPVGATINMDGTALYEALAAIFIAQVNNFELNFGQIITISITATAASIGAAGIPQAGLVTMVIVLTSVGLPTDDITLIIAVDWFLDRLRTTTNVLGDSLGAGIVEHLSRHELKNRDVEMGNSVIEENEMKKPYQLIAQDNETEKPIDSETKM
# UniProt Q9H015: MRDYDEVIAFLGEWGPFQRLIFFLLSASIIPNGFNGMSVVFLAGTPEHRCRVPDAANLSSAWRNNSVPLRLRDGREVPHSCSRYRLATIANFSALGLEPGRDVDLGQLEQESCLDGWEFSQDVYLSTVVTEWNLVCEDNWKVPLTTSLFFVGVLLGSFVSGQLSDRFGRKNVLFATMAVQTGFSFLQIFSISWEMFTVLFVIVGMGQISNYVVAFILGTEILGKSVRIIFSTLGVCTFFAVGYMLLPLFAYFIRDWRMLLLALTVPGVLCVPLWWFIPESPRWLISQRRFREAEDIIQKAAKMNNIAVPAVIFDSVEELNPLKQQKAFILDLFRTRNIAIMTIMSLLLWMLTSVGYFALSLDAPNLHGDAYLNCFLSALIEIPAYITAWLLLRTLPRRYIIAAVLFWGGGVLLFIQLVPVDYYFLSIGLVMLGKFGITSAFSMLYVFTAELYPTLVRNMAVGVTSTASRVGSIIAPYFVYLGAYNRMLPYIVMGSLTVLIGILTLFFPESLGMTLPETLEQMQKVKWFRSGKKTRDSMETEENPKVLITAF
# The list shows a part of the results.
# Compound: CC1=C(C2=C(C=C1)C(=O)C3=CC=CC=C3N2CCCN)C
# Experiment: log2 fold change, soluble protein after heating vs DMSO (PISA); higher = thermal stabilisation; K562 cells, 10 uM, 30 min; active = over 0.2 and 3.5 SD of the protein, either way, in both replicates (recomputed)
# In short: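 Quantification of soluble protein used TMTpro 16plex LC-MS/MS, with channel sums equalised. Samples were the supernatant after 21,000xg for 90 min of pooled aliquots from K562 cells (2×10^6 cells/mL) treated with 10 μM compound for 30 min, heated for 3 min over 48°C-58°C, and extracted in PBS with 0.5% NP-40 at 4°C. Values, from duplicates, describe thermal stability against control samples on a log2 fold-change scale.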
row,Target,log2 fold change
1,SLC35G1 (UniProt Q2M3R5),inactive: -0.06
2,SLC35D1 (UniProt Q9NTN3),inactive: 0.009
3,SLC52A2 (UniProt Q9HAB3),inactive: 0.166
4,SLC23A2 (UniProt Q9UGH3),inactive: 0.443
5,SLC2A13 (UniProt Q96QE2),inactive: -0.077
6,SLC35F6 (UniProt Q8N357),inactive: 0.078
7,SLC10A7 isoform 1 (UniProt Q0GE19),inactive: -0.003
8,SLC35E3 (UniProt Q7Z769),inactive: 0
9,SLC27A6 (UniProt Q9Y2P4),inactive: -0.074
10,SLC25A29 (UniProt Q8N8R3),inactive: -0.06
11,SLC39A8 (UniProt Q9C0K1),inactive: 0.037
12,SLC2A4 (UniProt P14672),inactive: 0.09
13,SLC39A3 (UniProt Q9BRY0),inactive: 0.23
14,SLC10A3 (UniProt P09131),inactive: -0.051
15,SLC19A2 (UniProt O60779),inactive: 0.105
16,SLC46A1 (UniProt Q96NT5),inactive: -0.049
17,SLC35A5 (UniProt Q9BS91),inactive: 0.003
18,SLC1A3 (UniProt P43003),inactive: 0.029
19,SLC22A4 (UniProt Q9H015),inactive: -0.064
20,SLC39A9 (UniProt Q9NUM3),inactive: 0.158
21,SLC25A35 (UniProt Q3KQZ1),inactive: 0.103
22,SLC3A2 (UniProt F5H867),inactive: 0.012

# Records 5–6, reprinted for reference:
row,Target,log2 fold change
5,SLC2A13 (UniProt Q96QE2),inactive: -0.077
6,SLC35F6 (UniProt Q8N357),inactive: 0.078
